Reference: article PMC11264600
These are yes or no findings as the source states them, for the method shown. In cells and extracts the contact can be indirect. Some entries that bind do so weakly or less than the wild type.

By UniProt entry, the sequences of proteins in these tests, tags left out.
UniProt Q08211: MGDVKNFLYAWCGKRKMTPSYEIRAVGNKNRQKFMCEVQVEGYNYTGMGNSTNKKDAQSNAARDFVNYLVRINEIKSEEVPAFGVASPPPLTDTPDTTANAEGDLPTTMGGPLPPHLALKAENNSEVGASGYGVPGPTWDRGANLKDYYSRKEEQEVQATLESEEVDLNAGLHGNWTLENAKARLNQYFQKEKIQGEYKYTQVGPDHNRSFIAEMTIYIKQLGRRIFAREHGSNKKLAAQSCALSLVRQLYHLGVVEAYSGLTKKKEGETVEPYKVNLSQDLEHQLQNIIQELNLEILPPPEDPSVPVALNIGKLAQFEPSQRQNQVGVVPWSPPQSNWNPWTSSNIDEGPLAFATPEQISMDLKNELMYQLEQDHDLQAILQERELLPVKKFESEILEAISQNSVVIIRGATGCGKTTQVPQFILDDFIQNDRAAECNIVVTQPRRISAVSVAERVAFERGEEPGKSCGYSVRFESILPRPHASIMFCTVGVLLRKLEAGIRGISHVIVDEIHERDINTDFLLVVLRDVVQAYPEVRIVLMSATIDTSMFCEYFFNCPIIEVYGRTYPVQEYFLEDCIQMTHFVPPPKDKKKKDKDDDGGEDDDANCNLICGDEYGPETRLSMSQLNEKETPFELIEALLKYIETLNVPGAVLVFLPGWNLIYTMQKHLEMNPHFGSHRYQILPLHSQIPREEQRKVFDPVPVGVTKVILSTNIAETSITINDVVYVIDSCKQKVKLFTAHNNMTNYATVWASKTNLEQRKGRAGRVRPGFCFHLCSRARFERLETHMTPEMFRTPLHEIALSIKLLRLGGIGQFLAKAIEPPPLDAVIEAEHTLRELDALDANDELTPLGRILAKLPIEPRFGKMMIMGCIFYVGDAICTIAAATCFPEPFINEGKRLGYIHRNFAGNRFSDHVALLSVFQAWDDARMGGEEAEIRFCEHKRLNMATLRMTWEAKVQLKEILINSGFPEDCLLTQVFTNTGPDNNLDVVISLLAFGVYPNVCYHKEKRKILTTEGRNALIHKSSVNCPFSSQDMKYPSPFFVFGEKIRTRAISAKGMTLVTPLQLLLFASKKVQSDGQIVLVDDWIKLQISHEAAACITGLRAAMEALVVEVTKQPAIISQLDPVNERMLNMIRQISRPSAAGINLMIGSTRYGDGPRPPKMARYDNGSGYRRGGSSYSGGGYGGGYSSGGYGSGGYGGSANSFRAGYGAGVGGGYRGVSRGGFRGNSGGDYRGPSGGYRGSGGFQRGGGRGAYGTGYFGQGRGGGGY
UniProt P03496: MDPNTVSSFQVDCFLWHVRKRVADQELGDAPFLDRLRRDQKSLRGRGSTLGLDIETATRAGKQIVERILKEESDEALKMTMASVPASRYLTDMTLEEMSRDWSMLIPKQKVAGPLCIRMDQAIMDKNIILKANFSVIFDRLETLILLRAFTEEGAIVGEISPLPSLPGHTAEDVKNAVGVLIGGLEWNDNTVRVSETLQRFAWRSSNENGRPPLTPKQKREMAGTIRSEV

Target: DHX9 (DExH-box helicase 9) (human (endogenous in A549 or HEK293T)) (UniProt Q08211)
Assay: co-IP

influenza A virus nonstructural protein 1 (NS1) (from UniProt P03496 1-230)
binding: binds
